Test results: paper PMC6162332
Substitutions are numbered along the chain they refer to. No constants are given. Whether binding was seen depends on the method and setting. Binding seen in cells or lysates may run through a third protein. Some entries that bind do so weakly or less than the wild type. Sequences can lack the tags named with a protein.

What was measured:
Assay in all cases: pull-down; GST or GST-Nlg1 proteins (0.64 nmol/200 µl) on glutathione magnetic beads in PBS pH 7.4, 0.01% BSA, 0.01% Tween-20; incubated 20 min at RT with COS-7 lysate containing gephyrin-Venus (200 µl/tube); eluted with glutathione; anti-gephyrin immunoblot; only the target purified
GST-Nlg1-Y782F (mouse) = biological target: T1, GST-Nlg1-Y782F (mouse) (UniProt Q99K10)
T1 sequence: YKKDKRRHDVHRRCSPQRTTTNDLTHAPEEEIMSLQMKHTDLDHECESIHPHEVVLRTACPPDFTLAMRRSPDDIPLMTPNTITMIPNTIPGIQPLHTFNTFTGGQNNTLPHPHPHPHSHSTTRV

GST-Nlg1-Y782A (mouse) = biological target: T2, GST-Nlg1-Y782A (mouse) (UniProt Q99K10)
T2 sequence: T1 sequence with F64A

[1] = biological target: T3, GST-Nlg1-WT (GST fused to the intracellular domain of neuroligin-1) (mouse) (UniProt Q99K10)
T3 sequence: T1 sequence with F64Y

binding (GST-Nlg1-Y782F (mouse)): binds
binding (GST-Nlg1-Y782A (mouse)): no binding
binding [1]: binds
B1: gephyrin-Venus (protein, UniProt Q03555 1-768)
chain: MATEGMILTNHDHQIRVGVLTVSDSCFRNLAEDRSGINLKDLVQDPSLLGGTISAYKIVPDEIEEIKETLIDWCDEKELNLILTTGGTGFAPRDVTPEKFPTFPFCGLQKGATKEVIEREAPGMALAMLMGSLNVTPLGMLSRPVCGIRGKTLIINLPGSKKGSQECFQFILPALPHAIDLLRDAIVKVKEVHDELEDLPSPPPPLSPPPTTSPHKQTEDKGVQCEEEEEEKKDSGVASTEDSSSSHITAAALAAKIPDSIISRGVQVLPRDTASLSTTPSESPRAQATSRLSTASCPTPKQIRRPDESKGVASRVGSLKVQSRCSSKENILRASHSAVDITKVARRHRMSPFPLTSMDKAFITVLEMTPVLGTEIINYRDGMGRVLAQDVYAKDNLPPFPASVKDGYAVRAADGPGDRFIIGESQAGEQPTQTVMPGQVMRVTTGAPIPCGADAVVQVEDTELIRESDDGTEELEVRILVQARPGQDIRPIGHDIKRGECVLAKGTHMGPSEIGLLATVGVTEVEVNKFPVVAVMSTGNELLNPEDDLLPGKIRDSNRSTLLATIQEHGYPTINLGIVGDNPDDLLNALNEGISRADVIITSGGVSMGEKDYLKQVLDIDLHAQIHFGRVFMKPGLPTTFATLDIDGVRKIIFALPGNPVSAVVTCNLFVVPALRKMQGILDPRPTIIKARLSCDVKLDPRPEYHRCILTWHHQEPLPWAQSTGNQMSSRLMSMRSANGLLMLPPKTEQYVELHKGEVVDVMVIGRL
